Laboratory results reported in PMC3062566.

B1: Serine/threonine protein kinase PknH (Rv1266c) (protein, UniProt P9WI71 1-626)
chain: MSDAQDSRVGSMFGPYHLKRLLGRGGMGEVYEAEHTVKEWTVAVKLMTAEFSKDPVFRERMKREARIAGRLQEPHVVPIHDYGEVDGQMFLEMRLVEGTDLDSVLKRFGPLTPPRAVAIITQIASALDAAHADGVMHRDVKPQNILITRDDFAYLVDFGIASATTDEKLTQLGTAVGTWKYMAPERFSNDEVTYRADIYALACVLHECLTGAPPYRADSAGTLVSSHLMGPIPQPSAIRPGIPKAFDAVVARGMAKKPEDRYASAGDLALAAHEALSDPDQDHAADILRRSQESTLPAPPKPVPPPTMPATAMAPRQPPAPPVTPPGVQPAPKPSYTPPAQPGPAGQRPGPTGQPSWAPNSGPMPASGPTPTPQYYQGGGWGAPPSGGPSPWAQTPRKTNPWPLVAGAAAVVLVLVLGAIGIWIAIRPKPVQPPQPVAEERLSALLLNSSEVNAVMGSSSMQPGKPITSMDSSPVTVSLPDCQGALYTSQDPVYAGTGYTAINGLISSEPGDNYEHWVNQAVVAFPTADKARAFVQTSADKWKNCAGKTVTVTNKAKTYRWTFADVKGSPPTITVIDTQEGAEGWECQRAMSVANNVVVDVNACGYRITNQAGQIAAKIVDKVNKE
B2: MSMEG_2695 (35-kDa antigen of M. smegmatis) (protein, UniProt A0QVU2 1-279)
chain: MANPFVKAWKYLMALFSSKVDEYADPKVQIQQAIEDAQRQHQALTQQAAQVIGNQRQLEMRLNRQLADIEKLQVNVRQALTLADQATAAGDVAKATEYNNAAEAFAAQLVTAEQSVEDLKGLHDQALQAAGQAKKAVEQNAMMLQQKIAERTKLLSQLEQAKMQEQVSSSLRSMSELAAPGTTPSLDEVRQKIERRYANAMGEAELAQNSVQGRMMEIQQASVQMAGHSRLEQIRASMRGEALPSGGATSTPATPSTQGTPSDPATNQTPPNTENPLGQ

Legend:
Assay in all cases: affinity purification with mass spectrometry
[1] = biological target: 3xFLAG-PepDS317A-6xHis (M. tuberculosis PepD S317A, expressed in M. tuberculosis ΔpepD from pTZ1066) (Mycobacterium tuberculosis) (UniProt O53896)
[2] = biological target: 3xFLAG-PepDS317A-6xHis (M. tuberculosis PepD S317A, expressed in M. tuberculosis ΔpepD from pTZ1066) (Mycobacterium tuberculosis) (UniProt O53896); remark: listed apart in the source
[3] = biological target: 3xFLAG-PepDS317A-6xHis (M. tuberculosis PepD S317A, expressed in M. smegmatis ΔpepD from pTZ1066) (Mycobacterium tuberculosis) (UniProt O53896)

| Molecule | binding [1] | further results |
| --- | --- | --- |
| ATP synthase subunit beta AtpD (Rv1310) (from UniProt P9WPU5 1-486) | binds | – |
| Chaperone protein DnaK (Rv0350) (from UniProt P9WMJ9 1-625) | binds | – |
| B1 | – | binding [2]: binds |
| B2 | – | binding [3]: binds |

Like-named read-outs stand apart in the source and are kept apart here. These are yes or no findings as the source states them, for the method shown. In cells and extracts the contact can be indirect. A yes stands for co-enrichment or nearness to the bait. Other partners may have been found.
